Taken from: PubChem BioAssay AID1224828 (NIAID, 2016)
Shown is a random part of about 17,000 reagents. In the full data, 762 (4.5%) were called active. 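Active calls include both raised and lowered p65 entry, mostly lowered; wells with fewer than 50 cells lack a z-score.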 The raw values are shown without normalisation. Unmarked entries are inactive.

- Aim: 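Regulators linking TLR4 signalling to p65 nuclear translocation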 (primary screen)
- Cells: mouse RAW264.7 G9 macrophage reporter cells (GFP-p65, Tnf promoter-mCherry)
- Reagents: siRNA pool against mouse genes, 100 nM
- Duration: 2 days siRNA transfection, then 40 min LPS before fixation
- Conditions: LPS (Salmonella minnesota R595) at 10 ng/ml
- Measured: 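Imaged p65 nuclear translocation ratio, normalised to the plate median, converted to robust z-scores and averaged across two replicates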
- Direction: p65 translocation robust z-score: higher = more nuclear NF-kappaB p65 after LPS than the plate median; nuclear/cytoplasmic p65 ratio: higher = more nuclear NF-kappaB p65
- Active means: 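Called active when z exceeds 3.3 or falls under -1.56 (median of Tlr4 controls), giving activity score of at least 50; no calls for control wells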
- Meaning of the calls: active = hit (p65 shift raised or lowered); inactive = no clear change

| gene knocked down | p65 translocation robust z-score | nuclear/cytoplasmic p65 ratio, rep 1 | nuclear/cytoplasmic p65 ratio, rep 2 | low cell count flag |
| --- | --- | --- | --- | --- |
| Dtna (dystrobrevin alpha) | -0.91 | 1.34 | 1.25 | enough cells to score |
| Ada (adenosine deaminase) | -0.12 | 1.66 | 1.55 | enough cells to score |
| Copa (coatomer protein complex subunit alpha) | 1.34 | 1.86 | 1.91 | enough cells to score |
| Csgalnact2 (chondroitin sulfate N-acetylgalactosaminyltransferase 2) | 1.97 | 1.82 | 1.79 | enough cells to score |
| Obp2a (odorant binding protein 2A) | -0.4 | 1.5 | 1.8 | enough cells to score |
| Slc31a2 | – | 1.53 | 1.13 | fewer than 50 cells per well; well left out of scoring |
| Or5b98 (olfactory receptor family 5 subfamily B member 98) | 0.76 | 1.72 | 1.53 | enough cells to score |
| Spaca4 (sperm acrosome associated 4) | 0.45 | 1.45 | 1.57 | enough cells to score |
| Tsfm (Ts translation elongation factor, mitochondrial) | – | 1.35 | 1.2 | fewer than 50 cells per well; well left out of scoring |
| Styx (serine/threonine/tyrosine interaction protein) | 0.17 | 1.6 | 1.56 | enough cells to score |
| Ctnnb1 (catenin beta 1) | 2.18 | 1.99 | 1.45 | enough cells to score |
| Mest (mesoderm specific transcript) | 1.74 | 1.66 | 1.57 | enough cells to score |
| Trim26 (tripartite motif-containing 26) | 0.14 | 1.6 | 1.46 | enough cells to score |
| Ugt8a (UDP galactosyltransferase 8A) | 0.31 | 1.59 | 1.52 | enough cells to score |
| Ginm1 (glycoprotein integral membrane 1) | 0.56 | 1.66 | 1.94 | enough cells to score |
| Adap2 (ArfGAP with dual PH domains 2) | 1.05 | 1.7 | 2.01 | enough cells to score |
| Arfgap2 (ARF GTPase activating protein 2) | 1.13 | 1.49 | 1.44 | enough cells to score |
| Elp4 (elongator acetyltransferase complex subunit 4) | -0.34 | 1.49 | 1.32 | enough cells to score |
| Sntb1 (syntrophin, basic 1) | 0.11 | 1.43 | 1.24 | enough cells to score |
| Or8b12b (olfactory receptor family 8 subfamily B member 12B) | -0.78 | 1.4 | 1.12 | enough cells to score |
| Tpcn1 (two pore channel 1) | – | 1.59 | 1.24 | fewer than 50 cells per well; well left out of scoring |
| Adam4 (a disintegrin and metallopeptidase domain 4) | 1.52 | 1.68 | 2.08 | enough cells to score |
| Stx17 (syntaxin 17) | -0.19 | 1.37 | 1.55 | enough cells to score |
| Sap18 (Sin3A-associated polypeptide 18) | -0.47 | 1.47 | 1.44 | enough cells to score |
| Zfat (zinc finger and AT hook domain containing) | 0.12 | 1.46 | 1.23 | enough cells to score |
| Tiam1 (T cell lymphoma invasion and metastasis 1) | 0.37 | 1.47 | 1.67 | enough cells to score |
| Or10ak11 (olfactory receptor family 10 subfamily AK member 11) | 2.97 | 2 | 1.86 | enough cells to score |
| Cts7 (cathepsin 7) | 0.71 | 1.72 | 1.86 | enough cells to score |
| Or2ag2 (olfactory receptor family 2 subfamily AG member 2) | -0.99 | 0.986 | 1.15 | enough cells to score |
| Or56b2 (olfactory receptor family 56 subfamily B member 2) | -0.39 | 1.41 | 1.22 | enough cells to score |
| Atp5f1d (ATP synthase F1 subunit delta) | – | 1.09 | 1.29 | fewer than 50 cells per well; well left out of scoring |
| Eef2 (eukaryotic translation elongation factor 2) | 0.37 | 1.57 | 1.36 | enough cells to score |
| Selenok (selenoprotein K) | -0.86 | 1.3 | 1.15 | enough cells to score |
| Pak6 (p21 (RAC1) activated kinase 6) | 0.14 | 2.02 | 1.39 | enough cells to score |
| Zc3h8 (zinc finger CCCH type containing 8) | – | 1.21 | 1.17 | fewer than 50 cells per well; well left out of scoring |

Targets listed so far whose gene name starts with O or o (6):
| gene knocked down | p65 translocation robust z-score | nuclear/cytoplasmic p65 ratio, rep 1 | nuclear/cytoplasmic p65 ratio, rep 2 | low cell count flag |
| --- | --- | --- | --- | --- |
| Obp2a (odorant binding protein 2A) | -0.4 | 1.5 | 1.8 | enough cells to score |
| Or5b98 (olfactory receptor family 5 subfamily B member 98) | 0.76 | 1.72 | 1.53 | enough cells to score |
| Or8b12b (olfactory receptor family 8 subfamily B member 12B) | -0.78 | 1.4 | 1.12 | enough cells to score |
| Or10ak11 (olfactory receptor family 10 subfamily AK member 11) | 2.97 | 2 | 1.86 | enough cells to score |
| Or2ag2 (olfactory receptor family 2 subfamily AG member 2) | -0.99 | 0.986 | 1.15 | enough cells to score |
| Or56b2 (olfactory receptor family 56 subfamily B member 2) | -0.39 | 1.41 | 1.22 | enough cells to score |

Additional records:
| gene knocked down | p65 translocation robust z-score | nuclear/cytoplasmic p65 ratio, rep 1 | nuclear/cytoplasmic p65 ratio, rep 2 | low cell count flag |
| --- | --- | --- | --- | --- |
| Cfi (complement component factor i) | -1.24 | 1.16 | 1.35 | enough cells to score |
| Fam221a (family with sequence similarity 221, member A) | -0.47 | 1.4 | 1.58 | enough cells to score |
| Cdr2 (cerebellar degeneration-related 2) | 1.24 | 1.62 | 1.55 | enough cells to score |
| Ifnl3 (interferon lambda 3) | – | 1.59 | 1.16 | fewer than 50 cells per well; well left out of scoring |
| Calcr (calcitonin receptor) | 0.39 | 1.54 | 1.66 | enough cells to score |
| Fam13c (family with sequence similarity 13, member C) | -1.47 | 1.21 | 1.22 | enough cells to score |
| Stard3 (StAR related lipid transfer domain containing 3) | 1.16 | 1.71 | 1.25 | enough cells to score |
| Vmn1r44 (vomeronasal 1 receptor 44) | 0.83 | 1.48 | 1.34 | enough cells to score |
| Cct6b (chaperonin containing TCP1 subunit 6B) | -1.17 | 1.32 | 1.23 | enough cells to score |
| Gm9735 (predicted gene 9735) | 0.28 | 1.51 | 1.54 | enough cells to score |
| Plxnb2 (plexin B2) | – | 1.18 | 1.09 | fewer than 50 cells per well; well left out of scoring |
| Agtpbp1 (ATP/GTP binding protein 1) | -0.44 | 1.5 | 1.66 | enough cells to score |
| Best2 (bestrophin 2) | 0.69 | 1.45 | 1.33 | enough cells to score |
| Ushbp1 (USH1 protein network component harmonin binding protein 1) | – | 1.31 | 1.26 | fewer than 50 cells per well; well left out of scoring |
| Nxnl2 (nucleoredoxin-like 2) | -0.06 | 1.22 | 1.34 | enough cells to score |
| Pipox (pipecolic acid oxidase) | -0.4 | 1.32 | 1.18 | enough cells to score |
| 2410018L13Rik (RIKEN cDNA 2410018L13 gene) | -0.99 | 1.32 | 1.28 | enough cells to score |
| Lrrc56 (leucine rich repeat containing 56) | – | 1.12 | 1.38 | fewer than 50 cells per well; well left out of scoring |
| Actl6b (actin-like 6B) | 0.59 | 1.82 | 1.6 | enough cells to score |
| Ccdc184 (coiled-coil domain containing 184) | 0.47 | 1.72 | 1.72 | enough cells to score |
| Rpl12 (ribosomal protein L12) | – | 1.37 | 1.23 | fewer than 50 cells per well; well left out of scoring |
| Slc7a9 | 0.32 | 1.54 | 1.58 | enough cells to score |
| Dzank1 (double zinc ribbon and ankyrin repeat domains 1) | 1.71 | 1.73 | 1.59 | enough cells to score |
| Tssc4 (tumor-suppressing subchromosomal transferable fragment 4) | -0.47 | 1.45 | 1.43 | enough cells to score |
